In patent US20220056125A1:
These are yes or no findings as the source states them, for the method shown. Some results given as binding are weak or reduced against the parent protein; the word gives no strength.

The chains behind the UniProt entries cited, without tags or fusion partners. Where a name states a change or a piece, a line headed by the entry shows the natural chain unless it says otherwise.
UniProt P55085: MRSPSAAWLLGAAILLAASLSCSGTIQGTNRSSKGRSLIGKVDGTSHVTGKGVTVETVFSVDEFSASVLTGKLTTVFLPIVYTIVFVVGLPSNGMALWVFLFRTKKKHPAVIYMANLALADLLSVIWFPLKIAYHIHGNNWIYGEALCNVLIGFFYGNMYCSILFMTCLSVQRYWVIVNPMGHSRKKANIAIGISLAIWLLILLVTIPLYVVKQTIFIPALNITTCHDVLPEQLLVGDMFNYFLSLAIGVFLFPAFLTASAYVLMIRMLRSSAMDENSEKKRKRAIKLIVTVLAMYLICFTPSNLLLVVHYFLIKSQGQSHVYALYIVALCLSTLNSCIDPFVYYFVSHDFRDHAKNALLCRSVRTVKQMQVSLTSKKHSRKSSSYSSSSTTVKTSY

T1: recombinant rat PAR-2 (rat) (UniProt Q63645)
T1 sequence: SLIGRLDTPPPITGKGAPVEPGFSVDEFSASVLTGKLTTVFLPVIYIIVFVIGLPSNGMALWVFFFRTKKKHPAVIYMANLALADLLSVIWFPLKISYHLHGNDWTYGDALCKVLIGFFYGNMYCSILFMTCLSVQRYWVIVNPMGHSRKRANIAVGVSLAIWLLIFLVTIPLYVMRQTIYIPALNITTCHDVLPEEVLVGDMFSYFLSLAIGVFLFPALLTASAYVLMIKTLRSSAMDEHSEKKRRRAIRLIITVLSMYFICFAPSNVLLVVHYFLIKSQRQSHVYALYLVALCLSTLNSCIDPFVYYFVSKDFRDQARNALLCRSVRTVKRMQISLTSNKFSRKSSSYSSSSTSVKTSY

T2: rabbit PAR-2 on cells (rabbit) (UniProt G1SHU9)
T2 sequence: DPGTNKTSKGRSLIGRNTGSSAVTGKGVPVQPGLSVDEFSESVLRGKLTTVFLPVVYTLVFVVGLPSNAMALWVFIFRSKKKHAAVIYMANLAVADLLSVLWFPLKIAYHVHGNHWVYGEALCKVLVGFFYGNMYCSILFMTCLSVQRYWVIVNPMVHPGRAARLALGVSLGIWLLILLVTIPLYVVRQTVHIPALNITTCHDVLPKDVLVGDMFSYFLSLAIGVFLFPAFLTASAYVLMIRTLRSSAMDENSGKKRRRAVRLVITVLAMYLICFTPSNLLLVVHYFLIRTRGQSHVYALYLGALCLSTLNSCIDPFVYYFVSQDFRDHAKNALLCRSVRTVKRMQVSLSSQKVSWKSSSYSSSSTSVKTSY


How the values were obtained:
[1] = biological target: recombinant human PAR-2 (human) (UniProt P55085); assay: Biacore SPR on recombinant PAR-2
[2] = biological target: recombinant human PAR-2 (human) (UniProt P55085); assay: SPR using PAR-2 preparations
[3] = biological target: T1, recombinant rat PAR-2 (rat); assay: SPR using PAR-2 preparations
[4] = biological target: guinea pig PAR-2 on cells (guinea pig); assay: flow cytometry, transiently transfected CHEM-1 cells
[5] = biological target: T2, rabbit PAR-2 on cells (rabbit); assay: as above
[6] = biological target: T1, recombinant rat PAR-2 (rat); assay: SPR, antibody captured on Protein A chip, recombinant PAR-2 injected
[7] = biological target: recombinant human PAR-2 (human) (UniProt P55085); assay: Biacore SPR on recombinant PAR-2 (assay not given)

| Binder | binding [1] | binding [7] | also measured |
| --- | --- | --- | --- |
| P24E5 (antibody, human IgG4 S228P, kappa, V domains shown) VH: QVQLVQSGAEVKKPGSSVKVSCKASGFSLSSYGVIWVRQAPGQGLEWMGVIWGNGNTYYNQKFQGRVTITADESTSTAYMELSSLRSEDTAVYYCARWRGYKDYPFDYWGQGTLVTVSS VL: EIVLTQSPATLSLSPGERATLSCKASQNIYKYLDWYQQKPGQAPRLLIYNTNSLHTGIPARFSGSGSGRDFTLTISSLEPEDFAVYYCLQHNSGWTFGGGTKVEIKR | binds |  |  |
| P24E1102 (antibody, human IgG4 S228P, kappa, V domains shown) VH: QVQLVQSGAEVKKPGSSVKVSCKASGFSLSSYAISWVRQAPGQGLEWMGVIWGNQNVYYAQKFQGRVTITADESTSTAYMELSSLRSEDTAVYYCARWKGYKDYPFDYWGQGTLVTVSS VL: EIVLTQSPATLSLSPGERATLSCRASQNVYKWLDWYQQKPGQAPRLLIYNANTRATGIPARFSGSGSGRDFTLTISSLEPEDFAVYYCQQHHSGWTFGGGTKVEIKR |  |  | binding [2]: binds; binding [3]: binds; binding [4]: binds; binding [5]: binds; binding [6]: binds |
| P24E29 (antibody, human IgG4 S228P, kappa, V domains shown) VH: QVQLVQSGAEVKKPGSSVKVSCKASGFSLNSYGVIWVRQAPGQGLEWMGVIWGNGNTYYNQKFQGRVTITADESTSTAYMELSSLRSEDTAVYYCARWRGYKDYPFDYWGQGTLVTVSS VL: EIVLTQSPATLSLSPGERATLSCKASQNVYKYLDWYQQKPGQAPRLLIYNTNSLHTGIPARFSGSGSGRDFTLTISSLEPEDFAVYYCLQHNSGWTFGGGTKVEIKR |  | binds |  |
| P24E27 (antibody, human IgG4 S228P, kappa, V domains shown) VH: QVQLVQSGAEVKKPGSSVKVSCKASGFSLNSYGVIWVRQAPGQGLEWMGVIWGNGNTYYNQKFQGRVTITADESTSTAYMELSSLRSEDTAVYYCARWRGYKDYPFDYWGQGTLVTVSS VL: EIVLTQSPATLSLSPGERATLSCRASQNIYKYLDWYQQKPGQAPRLLIYNTNSLHTGIPARFSGSGSGRDFTLTISSLEPEDFAVYYCLQHNSGWTFGGGTKVEIKR |  | binds |  |

The next lines start with results.

| binding [1] | binding [7] | Binder | also measured |
| --- | --- | --- | --- |
| binds |  | P24E39 (antibody, human IgG4 S228P, kappa, V domains shown) VH: QVQLVQSGAEVKKPGSSVKVSCKASGFSLNSYGVIWVRQAPGQGLEWMGVIWGNGNTYYNQKFQGRVTITADESTSTAYMELSSLRSEDTAVYYCARWRGYKDYPFDYWGQGTLVTVSS VL: EIVLTQSPATLSLSPGERATLSCKASQNIYKYLDWYQQKPGQAPRLLIYNTNSRHTGIPARFSGSGSGRDFTLTISSLEPEDFAVYYCLQHNSGWTFGGGTKVEIKR |  |
| binds |  | P24E36 (antibody, human IgG4 S228P, kappa, V domains shown) VH: QVQLVQSGAEVKKPGSSVKVSCKASGFSLNSYGVIWVRQAPGQGLEWMGVIWGNGNTYYNQKFQGRVTITADESTSTAYMELSSLRSEDTAVYYCARWRGYKDYPFDYWGQGTLVTVSS VL: EIVLTQSPATLSLSPGERATLSCKASQNIYKYLDWYQQKPGQAPRLLIYNANSLHTGIPARFSGSGSGRDFTLTISSLEPEDFAVYYCLQHNSGWTFGGGTKVEIKR |  |
